# According to publication PMC7404392:
# These are yes or no findings as the source states them, for the method shown. In cells and extracts the contact can be indirect. Some binding calls cover weakened binding; strength is not graded here. Tags and fused reporters may be left off the sequences shown.
# How the values were obtained:
# [1] = target: T1, Kv4.3-Flag (pCMV-KCND3-Long-FLAG) (human) (UniProt Q9UK17); assay: proximity ligation; Duolink on methanol-fixed HEK293 cells co-expressing GFP-Nav1.5 or GFP with Kv4.3-Flag; rabbit anti-GFP and mouse anti-Flag primary antibodies, PLA probes, confocal microscopy
# T1 sequence: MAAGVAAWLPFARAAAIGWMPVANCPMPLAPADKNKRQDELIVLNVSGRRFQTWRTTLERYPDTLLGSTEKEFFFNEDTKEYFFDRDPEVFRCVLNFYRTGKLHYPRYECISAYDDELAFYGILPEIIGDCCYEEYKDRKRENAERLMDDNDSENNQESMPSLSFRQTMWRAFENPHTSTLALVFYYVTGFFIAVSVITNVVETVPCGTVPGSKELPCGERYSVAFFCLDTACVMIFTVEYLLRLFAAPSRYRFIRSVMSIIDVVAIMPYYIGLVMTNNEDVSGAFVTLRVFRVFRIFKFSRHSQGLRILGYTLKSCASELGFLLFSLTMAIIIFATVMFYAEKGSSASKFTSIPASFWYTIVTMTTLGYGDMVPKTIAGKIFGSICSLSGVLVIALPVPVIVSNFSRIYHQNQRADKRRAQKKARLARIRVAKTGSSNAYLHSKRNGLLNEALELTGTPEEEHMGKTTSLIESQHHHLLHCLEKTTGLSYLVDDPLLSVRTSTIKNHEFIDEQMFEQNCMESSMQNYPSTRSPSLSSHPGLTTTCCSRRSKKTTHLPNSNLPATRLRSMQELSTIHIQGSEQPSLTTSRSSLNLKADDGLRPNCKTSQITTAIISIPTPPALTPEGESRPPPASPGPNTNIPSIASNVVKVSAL
# [2] = target: T1, Kv4.3-Flag (pCMV-KCND3-Long-FLAG) (human); assay: co-IP; HEK293 cells co-transfected with Nav1.5 constructs and Kv4.3-Flag; lysis in 50 mM Tris pH 7.5, 150 mM NaCl, 2 mM EDTA, 1% Triton; anti-Flag antibody on Dynabeads Protein G, overnight at 4 °C; blots with anti-Nav1.5 and anti-Flag
substance,measurement,setting,value
GFP-Nav1.5 (WT; pcDNA3.1-GFP-SCN5A) (from UniProt Q14524 1-2016),binding,[1],binds
same,binding,[2],binds
